These results are taken from publication PMC12638823.

The chains behind the UniProt entries cited, without tags or fusion partners.
UniProt Q9NYV6: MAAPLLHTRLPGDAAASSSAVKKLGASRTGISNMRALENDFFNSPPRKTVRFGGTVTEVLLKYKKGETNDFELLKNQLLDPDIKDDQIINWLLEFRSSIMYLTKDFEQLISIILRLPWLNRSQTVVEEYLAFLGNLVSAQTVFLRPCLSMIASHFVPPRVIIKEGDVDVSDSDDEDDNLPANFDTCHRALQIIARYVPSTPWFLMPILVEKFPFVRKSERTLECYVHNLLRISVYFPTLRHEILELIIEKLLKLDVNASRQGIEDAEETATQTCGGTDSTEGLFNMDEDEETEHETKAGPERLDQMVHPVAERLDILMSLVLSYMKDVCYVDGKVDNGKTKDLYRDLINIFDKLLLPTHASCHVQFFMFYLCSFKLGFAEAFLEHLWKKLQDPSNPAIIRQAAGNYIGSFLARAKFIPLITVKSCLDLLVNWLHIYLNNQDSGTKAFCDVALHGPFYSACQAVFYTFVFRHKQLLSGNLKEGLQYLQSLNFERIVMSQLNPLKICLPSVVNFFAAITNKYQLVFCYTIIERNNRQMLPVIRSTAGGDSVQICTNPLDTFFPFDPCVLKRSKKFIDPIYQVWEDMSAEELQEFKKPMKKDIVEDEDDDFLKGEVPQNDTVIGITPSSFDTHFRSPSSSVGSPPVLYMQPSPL
UniProt P11940: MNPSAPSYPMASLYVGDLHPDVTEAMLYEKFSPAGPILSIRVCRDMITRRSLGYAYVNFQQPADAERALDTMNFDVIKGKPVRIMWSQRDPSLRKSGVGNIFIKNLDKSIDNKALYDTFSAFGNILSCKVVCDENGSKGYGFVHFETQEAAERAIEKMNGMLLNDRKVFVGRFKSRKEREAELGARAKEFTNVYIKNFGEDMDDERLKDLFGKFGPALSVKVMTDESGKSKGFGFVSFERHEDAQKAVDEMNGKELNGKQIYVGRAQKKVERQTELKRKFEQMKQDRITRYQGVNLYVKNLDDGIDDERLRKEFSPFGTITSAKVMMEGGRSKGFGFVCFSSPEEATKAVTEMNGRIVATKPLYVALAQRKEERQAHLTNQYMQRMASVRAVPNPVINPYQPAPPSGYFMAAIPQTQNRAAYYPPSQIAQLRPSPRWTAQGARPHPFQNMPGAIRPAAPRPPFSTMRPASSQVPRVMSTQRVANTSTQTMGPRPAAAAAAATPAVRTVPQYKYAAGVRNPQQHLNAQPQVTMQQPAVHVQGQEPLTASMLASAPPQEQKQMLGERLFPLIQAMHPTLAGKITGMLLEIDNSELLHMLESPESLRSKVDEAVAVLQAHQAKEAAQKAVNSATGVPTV

These are yes or no findings as the source states them, for the method shown. Binding seen in cells or lysates may run through a third protein. Here binding means that the protein was enriched with, or labelled near, the bait; the list need not be complete.

The experiment has as its target V5-tagged RRN3 (stably expressed in SK-OV-3 cells) (human) (UniProt Q9NYV6). The experiment in a line: affinity purification with mass spectrometry; anti-V5 immunoprecipitation from chromatin-associated proteins of SK-OV-3 cells stably expressing V5-RRN3 (empty vector as control); UHPLC-MS/MS.

For the molecule “PABPC1 (endogenous, SK-OV-3 cells) (from UniProt P11940 1-636)”, the binding entry is reported as “binds”.

B1: SAMD4A (endogenous, SK-OV-3 cells) (protein, UniProt Q9UPU9 1-718)
chain: MMFRDQVGVLAGWFKGWNECEQTVALLSLLKRVSQTQARFLQLCLEHSLADCAELHVLEREANSPGIINQWQQESKDKVISLLLTHLPLLKPGNLDAKVEYMKLLPKILAHSIEHNQHIEESRQLLSYALIHPATSLEDRSALAMWLNHLEDRTSTSFGGQNRGRSDSVDYGQTHYYHQRQNSDDKLNGWQNSRDSGICINASNWQDKSMGCENGHVPLYSSSSVPTTINTIGTSTSTILSGQAHHSPLKRSVSLTPPMNVPNQPLGHGWMSHEDLRARGPQCLPSDHAPLSPQSSVASSGSGGSEHLEDQTTARNTFQEEGSGMKDVPAWLKSLRLHKYAALFSQMTYEEMMALTECQLEAQNVTKGARHKIVISIQKLKERQNLLKSLERDIIEGGSLRIPLQELHQMILTPIKAYSSPSTTPEARRREPQAPRQPSLMGPESQSPDCKDGAAATGATATPSAGASGGLQPHQLSSCDGELAVAPLPEGDLPGQFTRVMGKVCTQLLVSRPDEENISSYLQLIDKCLIHEAFTETQKKRLLSWKQQVQKLFRSFPRKTLLDISGYRQQRNRGFGQSNSLPTAGSVGGGMGRRNPRQYQIPSRNVPSARLGLLGTSGFVSSNQRNTTATPTIMKQGRQNLWFANPGGSNSMPSRTHSSVQRTRSLPVHTSPQNMLMFQQPEFQLPVTEPDINNRLESLCLSMTEHALGDGVDRTSTI
With B1, the binding entry was “binds”.
